Measurements published in PubChem BioAssay AID504842 (National Center for Advancing Translational Sciences (NCATS), 2011).
The campaign covered roughly 330,000 compounds. About 100 (0.03%) were called active. Inconclusive means that the source gave no clear call. Such entries were picked first, then a sample of the others. The call rests on the fitted dose curve; in most records, active means well fitted inhibition curve with a large enough effect; inconclusive means small, poorly fitted or top-dose-only effect; inactive means flat fitted curve, though single readings scatter. Potencies beside an inconclusive call are fits to weak or partial responses and may not hold up.

tested on: Chaperonin Mm-Cpn (Methanococcus maripaludis); assay: Inhibitors of TCP-1 ring complex (TRiC) of Methanococcus maripaludis (MmCpn): qHTS; conditions: purified Mm-Cpn ATPase, ADP Transcreener TR-FRET; further: nearly all actives have a fitted effect of over 80% in size;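 on Potency: enzyme at 25 nM with ATP substrate at 10 µM during the reaction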
Summary of the method: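 Eu-cryptate anti-ADP/ADP-d2 competition gives a ratio inversely related to ADP. Enzyme at 25 nM was pre-exposed to compound for 10 min, then given 10 uM ATP for 30 min, 37°C throughout.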
Potency means the concentration at half of the fitted maximal effect.

SMILES	Potency
Cc1cccc(-c2nsc(SCC(=O)c3ccc(Cl)cc3)n2)c1	inconclusive: 89.1 µM [inhibitor, single point]
Cc1[nH][nH]c(=O)c1C(c1cc([N+](=O)[O-])ccc1O)c1c(C)[nH][nH]c1=O	inconclusive: 100 µM [inhibitor, single point]
COc1ccc(C2/C(=C(\O)c3ccc4c(c3)OCCO4)C(=O)C(=O)N2Cc2cccnc2)cc1 (stereo not drawn)	inconclusive: 100 µM [inhibitor, single point]
Cc1nc2ccc(S(=O)(=O)Nc3cccc(-c4nc5cccnc5s4)c3C)cc2s1	inconclusive: 224 µM [inhibitor, partial curve, poor fit]
CN(c1ccc(C(=O)NCC2CCCO2)cc1)S(C)(=O)=O (stereo not drawn)	inconclusive: 15.8 µM [inhibitor, single point]
C/C(=N\Nc1cc(C)nc(-c2ccccc2O)n1)c1ccccc1	inactive
O=S(=O)(c1ccccc1)c1cc(O)ccc1O	inconclusive: 25.1 µM [inhibitor, single point]
O=C(NC1CCCCC1)C(c1ccccc1)N(C(=O)c1cccs1)c1ccc2c(c1)OCO2 (stereo not drawn)	inconclusive: 15.8 µM [inhibitor, single point]
COc1cccc(/C(O)=C2/C(=O)C(=O)N(Cc3ccco3)C2c2ccncc2)c1 (stereo not drawn)	inconclusive: 44.7 µM [inhibitor, single point]
COc1ccc2nc(/N=C(\N)NC(=O)C(C)(C)C)nc(C)c2c1	inactive
CC(NC(=O)Cn1ncc(Cl)c(Cl)c1=O)C12CC3CC(CC(C3)C1)C2 (stereo not drawn)	inconclusive: 251 µM [inhibitor, partial curve, poor fit]
Cc1c(C)n(C)c2ccc(C(=O)Nc3cccc4ccccc34)cc12	inconclusive: 56.2 µM [inhibitor, single point]
CN(CC(=O)NCCc1ccc(F)cc1)Cc1ccccc1	inconclusive: 20 µM [inhibitor, single point]
Cc1ccc(NC(=O)COC(=O)CCc2ccc(S(=O)(=O)N3CCOCC3)cc2)cc1F	inconclusive: 100 µM [inhibitor, single point]
Cc1cc2nc(-c3ccc(SCC(=O)Nc4ccc5c(c4)OCCO5)nc3)[nH]c2cc1C	inconclusive: 398 µM [inhibitor, partial curve, poor fit]
N/C(=N\OC(=O)c1cccc(Br)c1)c1ccncc1	inconclusive: 79.4 µM [inhibitor, single point]
O=[N+]([O-])c1ccc(O)c(C(C#Cc2ccccc2)N2CCOCC2)c1 (stereo not drawn)	inactive
COC(=O)Nc1c(-c2ccccc2)nc2ccc(Cl)cn12	inactive
Cc1cccc(N2C(=O)CS/C2=N\NC(=O)c2cccnc2)c1C	inconclusive: 89.1 µM [inhibitor, partial curve, poor fit]
O=C(COc1ccc2ccccc2c1)N1c2ccccc2Sc2ccccc21	inconclusive: 89.1 µM [inhibitor, single point]
N#C/C(=C(/O)c1ccccc1F)c1nc2cc(C(F)(F)F)ccc2s1	inactive
CCCCCC(O)(c1ccccc1)C(CN1CCOCC1)c1ccccc1 (stereo not drawn)	inactive
Cn1c(NCCCN2CCOCC2)nc2c1c(=O)n(Cc1ccc(Cl)cc1Cl)c(=O)n2C	inactive

SMILES	Potency
COc1ccc(N2CCN(CC(=O)Nc3cc(C)on3)CC2)cc1	inactive
CCOC(=O)c1c(C)[nH]c(C)c1C(=O)COC(=O)c1cccc(C)c1O	inconclusive: 89.1 µM [inhibitor, single point]
Fc1cccc(NC(=S)NNc2c3ccccc3nc3ccccc23)c1	inconclusive: 89.1 µM [inhibitor, partial curve, poor fit]
COC(=O)c1ccc(OCC(O)CN2CCN(C(=O)c3ccco3)CC2)c(OC)c1 (stereo not drawn)	inactive
O=C(NNC(=O)c1ccc2c(c1)OCO2)NC12CC3CC(CC(C3)C1)C2	inactive
CC(=O)N1CCN(c2ccc(NC(=O)/C=C/c3ccccc3)cc2)CC1	inconclusive: 100 µM [inhibitor, partial curve, poor fit]
CC1=CCC2C(=O)N(c3ccc(C(=O)N4CCCCCC4)cc3)C(=O)C2C1 (stereo not drawn)	inactive
CCc1noc(C)c1C(=O)Nc1nc(-c2ccc(OC)cc2OC)cs1	inconclusive: 89.1 µM [inhibitor, partial curve, poor fit]
CC1(C)C2CCC1(C)C(OC(=O)c1ccccc1C(=O)O)C2 (stereo not drawn)	inactive
CC[C@]12c3[nH]c4ccc(Cl)cc4c3CCN1C(=O)[C@@H](CC(=O)NCC13CC4CC(CC(C4)C1)C3)C[C@@H]2C(=O)N1CCN(C(=O)c2ccco2)CC1	inconclusive: 22.4 µM [inhibitor, single point]
Cc1ccc(S(=O)(=O)N2CCN(c3ncnc4scc(-c5ccc(F)cc5)c34)CC2)cc1	inconclusive: 63.1 µM [inhibitor, partial curve, poor fit]
C=CCN(C(=O)Cc1cccs1)c1nc(-c2ccc(S(C)(=O)=O)cc2)cs1	inconclusive: 100 µM [inhibitor, partial curve, poor fit]
Cc1sc2ncnc(N3CCN(S(=O)(=O)c4ccc(F)cc4)CC3)c2c1C	inconclusive: 89.1 µM [inhibitor, single point]
O=C(O)CCCN=C1CCCc2ccccc2N1	inconclusive: 22.4 µM [inhibitor, single point]
CN1CCN(C(=S)NC(=O)c2ccc(Br)cc2)CC1	inconclusive: 63.1 µM [inhibitor, single point]
O=C(c1ccc(Br)cc1)N1CCN(Cc2ccccc2)CC1	inactive
CC(C)C(NS(=O)(=O)c1cccc2nsnc12)C(=O)NC1CCCCC1C (stereo not drawn)	inconclusive: 12.6 µM [inhibitor, single point]
O=C(CCc1ccc(O)c(O)c1)NNC(=S)Nc1ccc(Br)cc1Cl	inconclusive: 22.4 µM [inhibitor, single point]
CC(C)(C)Nc1nc(-c2ccc3c(c2)CCN3C(=O)C2CC2)cs1	inconclusive: 100 µM [inhibitor, partial curve, poor fit]
COc1cccc(C2/C(=C(/O)c3ccc4c(c3)CC(C)O4)C(=O)C(=O)N2c2nnc(C)s2)c1 (stereo not drawn)	inconclusive: 251 µM [inhibitor, partial curve, poor fit]
Clc1ccc(-c2cc(COc3ccccc3)on2)cc1	inactive
COc1ccc(C(C(=O)NC2CCCCC2)N(Cc2ccco2)C(=O)c2ccccn2)c(OC)c1 (stereo not drawn)	inconclusive: 7.94 µM [inhibitor, single point]
Cc1nn(C)c(Oc2cccc(Cl)c2)c1C#N	inactive

SMILES	Potency
N#Cc1ccc(OCC(O)CN2CCN(CC(O)COc3ccc(C#N)cc3)CC2)cc1 (stereo not drawn)	inactive
O=C(NC(=S)Nc1ccccc1Br)c1ccc2c(c1)OCO2	inactive
CC(C)COC(=O)CNc1n[nH]c(=S)[nH]c1=O	inconclusive: 70.8 µM [inhibitor, partial curve]
OCCC1CN(Cc2c(F)cccc2Cl)CCN1C1CCCC1 (stereo not drawn)	inconclusive: 20 µM [inhibitor, single point]
CN(C)S(=O)(=O)c1ccc(N2CCCC2)c(C(=O)Nc2nc3c(ccc4ccccc43)s2)c1	inconclusive: 126 µM [inhibitor, partial curve, poor fit]
COc1cc(/C=C(\C#N)C(N)=O)ccc1OS(=O)(=O)c1ccc(C)cc1	inactive
C/C(=N\NC(=O)c1csc(C)c1C)c1ccco1	inactive
OC1=C(O)c2nc3cc(F)ccc3nc21	inactive
CCN1CCN(C(=O)c2cc(-c3ccc(Cl)s3)nc3ccccc23)CC1	inconclusive: 100 µM [inhibitor, single point]
Cc1nc(NC(CC(C)C)C(=O)O)c2nc(C)oc2n1 (stereo not drawn)	inconclusive: 100 µM [inhibitor, single point]
CC(/C=N/NC(=O)c1cc(-c2ccncc2)nc2ccccc12)=C\c1ccco1	inactive
Cc1cc(C(=O)Nc2ccc(Nc3ccccc3)cc2)ccc1[N+](=O)[O-]	inactive
CCN(c1cccc(C)c1)S(=O)(=O)c1cc2c3c(c1)CCN3C(=O)CC2	inconclusive: 89.1 µM [inhibitor, single point]
Cc1cc(C)cc(NC(=O)C(Sc2ncnc3ccccc23)c2ccccc2)c1 (stereo not drawn)	inconclusive: 100 µM [inhibitor, single point]
COc1cc(OC)c(-c2nc(-c3ccncc3)no2)cc1OC	inconclusive: 10 µM [inhibitor, single point]
COc1ccc(NC(=O)CN(C)C(=O)c2sc3ccccc3c2Cl)cc1	inconclusive: 100 µM [inhibitor, single point]
COc1ccc(NC(=O)CSc2nnc(NC(=O)CN3CCOCC3)s2)cc1	inconclusive: 14.1 µM [inhibitor, single point]
Cc1ccc(S(=O)(=O)N(C)C)cc1NC(=O)Cn1c(CN2CCOCC2)nc2ccccc2c1=O	inconclusive: 100 µM [inhibitor, single point]
Cc1ccc(C)c(-n2c(-c3ccc(Br)cc3)csc2=NC(=O)c2ccccc2F)c1	inconclusive: 22.4 µM [inhibitor, single point]
Cc1ccc(S(=O)(=O)NC2CCCC2)cc1C(N)=O	inconclusive: 224 µM [inhibitor, partial curve, poor fit]
c1ccc(CSc2nnc(Cc3ccccn3)o2)cc1	inconclusive: 22.4 µM [inhibitor, single point]
Cn1c(=O)cc(SCC(=O)N2CCCC2)c2ccccc21	inactive

Fetched by structure from above:
SMILES	Potency
Cc1ccc(C)c(-n2c(-c3ccc(Br)cc3)csc2=NC(=O)c2ccccc2F)c1	inconclusive: 22.4 µM [inhibitor, single point]
CC(C)COC(=O)CNc1n[nH]c(=S)[nH]c1=O	inconclusive: 70.8 µM [inhibitor, partial curve]
Cc1cc(C)cc(NC(=O)C(Sc2ncnc3ccccc23)c2ccccc2)c1 (stereo not drawn)	inconclusive: 100 µM [inhibitor, single point]
Cc1nc(NC(CC(C)C)C(=O)O)c2nc(C)oc2n1 (stereo not drawn)	inconclusive: 100 µM [inhibitor, single point]
C/C(=N\NC(=O)c1csc(C)c1C)c1ccco1	inactive
